# Laboratory results: patent US7202046B2, “Use of a fluorescent protein for detecting interaction between a target protein and its ligand” (priority 1997, dated 2007)
# pKi: −log10 of the molar value. Not every detail of the peptide structures is certain; ends, links or a residue may be inferred. Where a SMILES comes first, the peptide text is derived from it. [ ]: non-standard residue; d: D form.
# How the values were obtained:
# [1] = system: fluorescent receptor NK2R-RF1; assay: Displacement of 3H SR 48968 binding (competition experiment), HEK 293 cells expressing NK2R-RF1; set-up: species or system rat; conditions: read-out: KI, displacement of 3H SR 48968; 1 nM 3H SR 48968, 25,000 cells, 4° C.
# Protocol: Each 500 μl sample contains 25,000 cells, 1 nM 3HSR 48968 and a non-radioactive ligand at various concentrations (from 1 nM to 10 μM). The incubation is carried out for one hour at 4° C. Filtration is carried out at the end of incubation, as described in 3b).
# NK2R-RF1 receptor = assay: Fluorescence energy transfer between fluorescent ligand and NK2R-RF1 on HEK293 cells in suspension; format: binding, rat; conditions: 20 μM non-fluorescent ligand, 10^6 cells/ml, emission 510 nm
# Protocol: The fluorescence experiments are carried out in a 1 ml tank fitted with a magnetic stirring system and placed in a Fluorolog spectrofluorimeter (SPEX) equipped with a 450 W xenon lamp (Osram) and Spex 1680 0.22 m (excitation) and Spex 1681 0.22 m (emission) monochromators. The cells or the membrane fragments are suspended in physiological buffer: 10 mM Hepes, 137.5 mM NaCl, 1.25 mM MgCl2, 1.25 mM CaCl2, 6 mM KCl, 5.6 mM glucose, 0.4 mM NaH2PO4, 0.1% (w/v) BSA, pH 7.4.
# The HEK293 cells expressing the NK2R-RF1 are suspended at a concentration of 1,000,000 cells/ml in Hepes physiological buffer (10 mM Hepes, 137.5 mM NaCl, 1.25 mM MgCl2, 1.25 mM CaCl2, 6 mM KCl, 5.6 mM glucose, 0.4 mM NaH2PO4, 0.1% (w/v) BSA, pH 7,4). The cells are then placed in a fluorescence tank at a concentration which can range from 100,000 to 1,000,000 cells/ml. […] The emission spectrum of the solution is again recorded. […] The appearance of a peak at 550–560 nm during the addition of the fluorescent ligand and a reduction in its intensity during the addition of non-labeled ligand are also detected. […]
# The same recordings can be made in real time. […] The final value of the fluorescence intensity can be higher than the initial value when the absorption of the fluorescent ligand contributes to the signal.
# NK2R-RF1 = assay: Release of intracellular calcium (FURA 2), cells expressing pCEP4-NK2R-RF1; format: cell-based, rat; conditions: antagonist (5 μM cyclopeptide) then 10 nM NKA
# Protocol: The fluorescent calcium-chelating agent, FURA 2 acetyl methyl ester (Molecular Probes), dissolved in DMSO is diluted to a concentration of 3 μM in 10 mM Hepes, 137.5 mM NaCl, 1.25 mM MgCl2, 1.25 mM CaCl2, 6 mM KCl, 5.6 mM glucose, 0.4 mM NaH2PO4, 0.1% (w/v) BSA, pH 7.4 buffer. The cell culture medium is aspirated and then replaced with 7 to 10 ml of FURA 2 AM solution. The cells are placed in the CO2 incubator for 45 min. The medium is then aspirated, replaced with FURA-free Hepes buffer and the cells are replaced in the CO2 incubator for a further 15 min. The buffer is aspirated and the cells are then collected after they have been detached from the dish with a 5 mM EDTA, PBS solution for 5 min. After centrifugation at 1000×g for 5 min., the cell pellet obtained is re-suspended at a rate of 1×10^6 cells/ml in Hepes buffer.
# The calcium-release measurements are carried out at 37° C., in a spectrofluorimetiy tank containing a magnetic stirrer bar. The excitation wavelength is set at […] and the emission wavelength is set at 510 nm.
compound,measurement,setting,value
CC(C)[C@H](NC(=O)[C@@H](Cc1c[nH]c2ccccc12)NC(=O)[C@H](Cc1ccc(O)cc1)NC(=O)[C@@H](N)CC(=O)O)C(=O)N[C@H](Cc1c[nH]c2ccccc12)C(=O)N[C@H](Cc1c[nH]c2ccccc12)C(=O)N[C@@H](CCCCN)C(N)=O [MEN 10.376] (H-DY[dW]V[dW][dW]K-NH2; N-terminus and C-terminus assumed),pKi,[1],7.21
same,inhibition of real-time energy transfer between 100 nM NKA BO I and NK2R-RF1,NK2R-RF1 receptor,inhibition
same,inhibition of the NKA-elicited calcium response,NK2R-RF1,inhibited
